Assay results as given in publication PMC7642414, “R-spondins are BMP receptor antagonists in Xenopus early embryonic development” (Nature Communications, 2020).
These are yes or no findings as the source states them, for the method shown. Binding can be weak; no strength is given.

By UniProt entry, the sequences of proteins in these tests, tags left out. Where a name states a change or a piece, a line headed by the entry shows the natural chain unless it says otherwise. Residues count along the entry.
UniProt P36894, residues 24-532: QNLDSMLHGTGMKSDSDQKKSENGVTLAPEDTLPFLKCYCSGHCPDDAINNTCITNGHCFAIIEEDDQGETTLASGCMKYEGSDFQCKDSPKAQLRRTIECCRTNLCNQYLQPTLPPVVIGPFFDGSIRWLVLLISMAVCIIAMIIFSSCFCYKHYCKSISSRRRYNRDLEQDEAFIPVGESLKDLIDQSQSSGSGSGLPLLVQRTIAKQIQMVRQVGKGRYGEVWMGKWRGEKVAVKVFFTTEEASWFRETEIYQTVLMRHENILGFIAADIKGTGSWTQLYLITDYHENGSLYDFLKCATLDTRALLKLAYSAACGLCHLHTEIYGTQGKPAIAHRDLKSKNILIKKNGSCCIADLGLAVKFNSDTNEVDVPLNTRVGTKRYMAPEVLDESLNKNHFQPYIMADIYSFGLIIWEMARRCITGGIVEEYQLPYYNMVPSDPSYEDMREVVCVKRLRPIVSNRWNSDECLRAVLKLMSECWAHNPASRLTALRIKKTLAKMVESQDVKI
UniProt Q2MKA7: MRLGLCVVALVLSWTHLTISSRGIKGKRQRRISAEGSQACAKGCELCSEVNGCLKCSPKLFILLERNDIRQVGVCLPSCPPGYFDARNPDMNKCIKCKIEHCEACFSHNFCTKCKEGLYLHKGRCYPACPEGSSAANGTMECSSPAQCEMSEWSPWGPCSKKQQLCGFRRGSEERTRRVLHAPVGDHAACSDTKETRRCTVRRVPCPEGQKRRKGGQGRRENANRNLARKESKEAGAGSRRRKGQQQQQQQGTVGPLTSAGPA
UniProt Q6UXX9: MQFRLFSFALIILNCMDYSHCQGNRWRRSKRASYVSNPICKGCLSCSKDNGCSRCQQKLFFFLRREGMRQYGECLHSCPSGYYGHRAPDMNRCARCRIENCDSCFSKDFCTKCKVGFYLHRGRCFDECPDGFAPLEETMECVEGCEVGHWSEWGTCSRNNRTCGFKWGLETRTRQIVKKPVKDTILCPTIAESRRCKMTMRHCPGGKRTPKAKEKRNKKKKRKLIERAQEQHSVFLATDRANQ
UniProt Q9BXY4: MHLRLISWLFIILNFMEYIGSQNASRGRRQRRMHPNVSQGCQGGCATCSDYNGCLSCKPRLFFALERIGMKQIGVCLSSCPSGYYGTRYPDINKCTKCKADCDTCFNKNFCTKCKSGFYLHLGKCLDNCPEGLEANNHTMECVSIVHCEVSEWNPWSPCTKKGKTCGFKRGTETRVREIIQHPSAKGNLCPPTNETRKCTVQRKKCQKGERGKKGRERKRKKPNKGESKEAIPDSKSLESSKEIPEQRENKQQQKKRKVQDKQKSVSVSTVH
UniProt Q8BJ73: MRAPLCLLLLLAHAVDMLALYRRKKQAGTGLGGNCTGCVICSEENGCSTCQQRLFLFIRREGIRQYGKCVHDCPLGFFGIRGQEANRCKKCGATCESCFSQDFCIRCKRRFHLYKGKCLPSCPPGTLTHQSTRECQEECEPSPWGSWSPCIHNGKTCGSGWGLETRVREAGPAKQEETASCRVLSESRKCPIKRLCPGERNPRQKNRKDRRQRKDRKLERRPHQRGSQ

These substances were tested against human BMPR1A-HA on HEK293T cells (human) (UniProt P36894) (assay: cell surface binding assay (AP fusion, chromogenic stain); HEK293T cells transfected with receptor DNA, incubated with 1.5 U ml^-1 AP-fusion conditioned media for 3 h on ice, washed, DSP crosslinking, Levamisole, developed with BM-Purple).
In the case of “human RSPO1^∆C-AP (from UniProt Q2MKA7) (ligand)”, the binding is reported as “no binding (tested: 1.5 U ml^-1 conditioned media)”.
For “human RSPO2^∆C-AP (from UniProt Q6UXX9) (ligand)”, the binding was “binds”.
For “human RSPO3^∆C-AP (from UniProt Q9BXY4) (ligand)”, the binding was “binds”.
“murine RSPO4^∆C-AP (from UniProt Q8BJ73) (ligand)” was tested, and the binding was “no binding (tested: 1.5 U ml^-1 conditioned media)”.
